Results are given in words; binding and its absence hold for the method and conditions named. In cells and extracts the contact can be indirect. A yes stands for co-enrichment or nearness to the bait. Other partners may have been found.
Molecular target: epidermal growth factor receptor (EGFR) (human (endogenous in hBMECs)) (UniProt P00533)
Experiment: affinity purification with mass spectrometry; anti-EGFR antibody immunoprecipitation from lysates of control and infected (PCN033, SC19) hBMECs; SDS-PAGE bands identified by mass spectrum analysis

α-actinin-4 (ACTN4) (from UniProt O43707 1-911)
binding: binds

From article PMC6333852
